Measurements reported in PubChem BioAssay AID504808 (Drosophila RNAi Screening Center, 2011)
Aim: 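Genes whose loss lifts activity of an E2F-responsive reporter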 (primary screen). Cells: Drosophila S2 cells. Knock-down reagent: long dsRNA against Drosophila genes. Detection: 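Firefly luciferase driven by E2F sites, normalised to Renilla luciferase on the same minimal promoter, measured by plate reader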. Scale: E2F firefly: higher = more E2F reporter activity; Renilla normaliser: higher = more normaliser reporter signal. Hit rule: 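a knock-down counted as active when the firefly/Renilla E2F signal rose above 50%, a threshold chosen arbitrarily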.
The deposit covers about 21,000 reagents; shown is a random part of those with a known target gene and a result. In the full data, 18 (0.084%) were called active. 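Raw counts without plate normalisation, one of two replicates; the ratio scores behind the calls were not deposited.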 The numbers tell different reagents against one gene apart. Not given: the amount of reagent, the time to read-out.

| gene | reagent | E2F firefly, rep 1 | Renilla normaliser, rep 1 | Outcome |
| --- | --- | --- | --- | --- |
| CG3342 | 1 | 7974 | 788 | inactive |
| BBS4 (Bardet-Biedl syndrome 4) | 1 | 54725 | 3147 | inactive |
| Ddr (Discoidin domain receptor) | 1 | 1.28e5 | 5548 | inactive |
| Ddr (Discoidin domain receptor) | 2 | 1.29e5 | 5772 | inactive |
| Ddr (Discoidin domain receptor) | 3 | 1.50e5 | 4623 | inactive |
| Ddr (Discoidin domain receptor) | 4 | 1.63e5 | 5360 | inactive |
| Ddr (Discoidin domain receptor) | 5 | 1.38e5 | 4932 | inactive |
| Rbp1-like | 1 | 1.43e5 | 7868 | inactive |
| CG34273 | 1 | 75683 | 2772 | inactive |
| Sgf29 (SAGA-associated factor 29kDa) | 1 | 84567 | 3677 | inactive |
| CG2211 | 1 | 1.01e5 | 3785 | inactive |
| CG14300 | 1 | 1.41e5 | 6867 | inactive |
| mir-210 (retired record) | 1 | 93050 | 2799 | inactive |
| alc (alicorn) | 1 | 1.48e5 | 4845 | inactive |
| CG34267 | 1 | 1.22e5 | 3730 | inactive |

Next part; the last 4 above are carried over.
| gene | reagent | E2F firefly, rep 1 | Renilla normaliser, rep 1 | Outcome |
| --- | --- | --- | --- | --- |
| CG14300 | 1 | 1.41e5 | 6867 | inactive |
| mir-210 (retired record) | 1 | 93050 | 2799 | inactive |
| alc (alicorn) | 1 | 1.48e5 | 4845 | inactive |
| CG34267 | 1 | 1.22e5 | 3730 | inactive |
| CG13561 | 1 | 1.09e5 | 4759 | inactive |
| Zasp52 (Z band alternatively spliced PDZ-motif protein 52) | 1 | 1.50e5 | 4840 | inactive |
| Zasp52 (Z band alternatively spliced PDZ-motif protein 52) | 2 | 1.24e5 | 4396 | inactive |
| dally (division abnormally delayed) | 1 | 1.34e5 | 4416 | inactive |
| dally (division abnormally delayed) | 2 | 76394 | 3640 | inactive |
| Gr59f (Gustatory receptor 59f) | 1 | 1.15e5 | 4521 | inactive |
| CG4452 | 1 | 69627 | 3363 | inactive |
| rdhB (retinol dehydrogenase B) | 1 | 80818 | 4204 | inactive |
| nAChRbeta3 (nicotinic Acetylcholine Receptor beta3) | 1 | 76226 | 3133 | inactive |
| Khc-73 (Kinesin heavy chain 73) | 1 | 75600 | 3280 | inactive |
| CG15118 | 1 | 79610 | 2973 | inactive |
| CG5567 | 1 | 75390 | 4063 | inactive |
| Hsf (Heat shock factor) | 1 | 63481 | 3752 | inactive |
| Fip1 (Factor interacting with poly(A) polymerase 1) | 1 | 73351 | 3198 | inactive |
| CG14958 | 1 | 85016 | 3615 | inactive |
| CG33552 | 1 | 1.37e5 | 4860 | inactive |
| IM33 (Immune induced molecule 33) | 1 | 1.30e5 | 4945 | inactive |
| CG14573 | 1 | 1.58e5 | 7551 | inactive |
| CG14891 | 1 | 72077 | 3165 | inactive |
